Reference: the supplement of paper PMC5949888
Most values lie at the floor of the assay. Slopes are relative: functional sequences can read slightly below zero.

system: Saccharomyces cerevisiae PS128 hsf1 delta, HSF1(1-493) fusion; assay: growth estimate (transactivation domain function in HSF1 fusion, heat-shock survival) (a.u. (slope of normalised read count over time)); higher = stronger growth at 37°C, i.e. more transactivation activity; details: library: random library

Substance | growth estimate
QNWDGVSMRALRPDGVLTAW | < -0.25
QPATFHGSGSETEPMCADEI | < -0.25
QPD | < -0.25
QPGG | < -0.25
QPGGSLVFSSWCLGQNPAVR | < -0.25
QPGVLVLFWCPALVTLQRRT | < -0.25
QPIGGSRSFKVGLRGLKII | < -0.25
QPIPGSKQADRHVNRHKS | < -0.25
QPSCS | < -0.25
QPTKINICVFMRPR | < -0.25
QPVFQ | < -0.25
QPVGTTGLASEDFLFLITRR | < -0.25
QPWSLSGSERRFAPAARTRV | < -0.25
QPYLRLYSLSLLREGRGRGR | < -0.25
QPYSYNRGKLEGCSYAELLG | < -0.25
QQCPGGS | < -0.25
QQDN | < -0.25
QQFPKCIVSWGEFK | -0.231
QQGNTASRRSVSIEH | < -0.25
QQGSVSVAGGTQLRRIGQRS | < -0.25
QQICLGRSDAESRSVADHLG | < -0.25
QQLDTHEAPVASSPCVVSHV | < -0.25
QQLWTGYYVARLTMRRVGGV | < -0.25
QQPWQSEHTSRGINNLIHRP | < -0.25
QQRIITIG | < -0.25

An excerpt of these results, in markdown.

| Substance | growth estimate |
| --- | --- |
| QNWDGVSMRALRPDGVLTAW | < -0.25 |
| QQPWQSEHTSRGINNLIHRP | < -0.25 |

Remaining list, next part:

Substance | growth estimate
QQRMNTREGKPTHFNRKFRP | < -0.25
QQTHGGLL | < -0.25
QQTVRHLLMERAHGILGAVR | < -0.25
QQVVSA | < -0.25
QRAGSAGEGPVVELGHSFDL | < -0.25
QRCSNARSPSRRP | < -0.25
QRDIGCLKAKGGRAFSQGWD | < -0.25
QRDVMSRGNERKS | < -0.25
QRELWPYDDIAM | -0.105
QRERSACEIRWPTARLQWRG | < -0.25
QRERSPSREGFTPGKIKP | < -0.25
QREWGIGDPLVRA | < -0.25
QRFMLEFYRRLGLAELLRTV | < -0.25
QRFSRKGDVQGPRPQAQSPR | < -0.25
QRGCRQYVQV | < -0.25
QRGEFVPTYVVGLKTRRHTT | < -0.25
QRGLLSTTWCPTFLLPLLFQ | < -0.25
QRGMFKGGPDHH | < -0.25
QRGMSTWLRVSI | < -0.25
QRHGFNTGRE | < -0.25
QRHLCSLTCRPVVSFRTPSI | < -0.25
QRKCDLLALEQCTGQS | < -0.25
QRLHGIAGKYLVPGPKLLTR | < -0.25
QRQNTTGARRIPLNGRIRSA | < -0.25
QRSCRGRNIIIQDRYAPSTC | < -0.25

Substance | growth estimate
QRSCVVGSVSDYE | < -0.25
QRSLC | < -0.25
QRSLFNTQQVVQG | < -0.25
QRSPCQG | < -0.25
QRSRNGRLIREYRR | < -0.25
QRSSG | < -0.25
QRSSNWNLYPLILLLCPGPV | < -0.25
QRTTVGTKVRRTVRARRGLG | < -0.25
QRVTVSVW | < -0.25
QSAGGTRAVNDPLTTRVDLP | < -0.25
QSGCFGRSSMHFTGCFYENL | < -0.25
QSGNWG | < -0.25
QSGPPS | < -0.25
QSGW | < -0.25
QSISVHFQIW | < -0.25
QSLKWHRLSGDHFVVPRH | < -0.25
QSLPLAVRRRAYQTGPRFR | -0.219
QSLTRGTLVPWDAGPRTGVQ | < -0.25
QSLVYSQRFLYRAVFNHE | < -0.25
QSPS | < -0.25
QSPTVGEGSITIF | < -0.25
QSR | < -0.25
QSRNE | < -0.25
QSRYGMESKW | < -0.25
QSS | < -0.25

Substance | growth estimate
QSSGAFRVCPRFRGHADSHT | < -0.25
QSSGGRVPPGL | < -0.25
QSTAGIMSWQFSKLVLQLKR | < -0.25
QSTLVCRRVRRSTGTEGIST | < -0.25
QSTPGEKDGAPNWLHMRALV | < -0.25
QSV | < -0.25
QSVATTAVEPCGTGGPQVDG | < -0.25
QSVC | < -0.25
QSVSA | < -0.25
QSVVGGVAGMPVQVLHASQT | < -0.25
QSWGKPGPKACIGSTDS | < -0.25
QSWGSSVSVVE | < -0.25
QSWPYVGNTVGTVLIVMGGP | < -0.25
QTDQTPNLMPIIEDEWLHSR | < -0.25
QTEQP | < -0.25
QTG | < -0.25
QTGDVRARSLLCDAIFARTK | < -0.25
QTIGPPTQKVGGGSYPPVES | < -0.25
QTLL | < -0.25
QTNEPQGGELPRIFTLQLTV | < -0.25
QTPGNRWSKRC | < -0.25
QTPSQGGALDSRSPALSNQL | < -0.25
QTQFMR | < -0.25
QTQGLKAGYTEYSRRGLQTL | < -0.25

Copied from the list.
growth estimate, QSTPGEKDGAPNWLHMRALV reads < -0.25
growth estimate, QSTAGIMSWQFSKLVLQLKR reads < -0.25

A second format for part of the listing above:
Substance	growth estimate
QPSCS	< -0.25
QPTKINICVFMRPR	< -0.25
